Source: publication PMC11672271

Target: Myc-tagged STAT3 (bait of the mass spectrometry experiment), P42227
Assay: affinity purification with mass spectrometry; Myc-STAT3 transfected into cells (mESC or HEK-293T), LIF-treated; c-Myc Tag IP/Co-IP kit, 10% SDS-PAGE, Coomassie, in-gel trypsin digestion of unique bands, ion-trap MS/MS
Conditions: remark: other sources report otherwise

binding: binds
B1: protein kinase C delta (PKCδ), P28867 1-674 (protein)
chain: MAPFLRISFNSYELGSLQVEDEASQPFCAVKMKEALSTERGKTLVQKKPTMYPEWKTTFDAHIYEGRVIQIVLMRAAEDPVSEVTVGVSVLAERCKKNNGKAEFWLDLQPQAKVLMCVQYFLEDGDCKQSMRSEEEAKFPTMNRRGAIKQAKIHYIKNHEFIATFFGQPTFCSVCKEFVWGLNKQGYKCRQCNAAIHKKCIDKIIGRCTGTATNSRDTIFQKERFNIDMPHRFKVYNYMSPTFCDHCGSLLWGLVKQGLKCEDCGMNVHHKCREKVANLCGINQKLLAEALNQVTQRSSRKLDTTESVGIYQGFEKKPEVSGSDILDNNGTYGKIWEGSTRCTLENFTFQKVLGKGSFGKVLLAELKGKDKYFAIKCLKKDVVLIDDDVECTMVEKRVLALAWESPFLTHLICTFQTKDHLFFVMEFLNGGDLMFHIQDKGRFELYRATFYAAEIICGLQFLHSKGIIYRDLKLDNVMLDRDGHIKIADFGMCKENIFGEGRASTFCGTPDYIAPEILQGLKYSFSVDWWSFGVLLYEMLIGQSPFHGDDEDELFESIRVDTPHYPRWITKESKDIMEKLFERDPDKRLGVTGNIRIHPFFKTINWSLLEKRKVEPPFKPKVKSPSDYSNFDPEFLNEKPQLSFSDKNLIDSMDQEAFHGFSFVNPKFEQFLDI

These are yes or no findings as the source states them, for the method shown. Binding seen in cells or lysates may run through a third protein. A yes stands for co-enrichment or nearness to the bait. Other partners may have been found.
